Here are results for one sequence from publication PMC2543017.

The exact form of at least one protein or probe is not confirmed. Weaker means in comparison with the reference protein, sequence or condition of that experiment. Tags and fusion partners may be left off the protein sequences shown. At least one verdict rests on a figure or table, not on a statement of the authors.

This data set addresses T1, NF-kappaB p50 (UniProt P19838).
T1 sequence (looked up, limits assumed): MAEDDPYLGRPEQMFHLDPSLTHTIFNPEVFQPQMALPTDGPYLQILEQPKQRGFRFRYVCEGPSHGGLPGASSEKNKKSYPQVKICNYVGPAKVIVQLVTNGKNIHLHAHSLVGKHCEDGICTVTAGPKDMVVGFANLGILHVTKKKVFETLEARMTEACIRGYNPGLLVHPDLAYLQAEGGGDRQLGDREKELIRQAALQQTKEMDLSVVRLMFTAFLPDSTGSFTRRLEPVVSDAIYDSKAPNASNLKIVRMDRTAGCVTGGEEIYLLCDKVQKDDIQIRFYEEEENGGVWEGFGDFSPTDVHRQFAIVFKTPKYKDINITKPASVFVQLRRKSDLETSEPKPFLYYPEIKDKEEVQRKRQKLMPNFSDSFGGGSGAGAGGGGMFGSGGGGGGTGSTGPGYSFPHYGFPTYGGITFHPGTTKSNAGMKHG
The data set is described as follows: EMSA. The note with it: EMSA: p50 preincubated 15 min with compound, then 15 min with 32P-DNA (Methods: 5 min at room temperature), 6% PAGE, 0.25x TBE, commercial protein, label: 32P 5' end (T4 PNK).

For the sequence “AATCGTGGAATTTCCTCT (double strand) [IL-8 NF-kB]”, the binding result is recorded as “binds more weakly” (compound 21 (0.01-10 mM) inhibits complex, poly(dI:dC)); “binds” (no inhibitor effect: compound 5 or C. pyramidalis extract inactive, poly(dI:dC)); “binds more weakly” (reference compound 9i (0.01-10 mM), effect similar to compound 21, poly(dI:dC)).
